# According to the supplement of paper PMC12823440, “Inhibitors supercharge kinase turnover through native proteolytic circuits” (Nature, 2025):
# Amino acid sequences for entries named in this document (tags omitted). A change or cut given only in a name is not applied to a line headed by its entry.
# UniProt P48729: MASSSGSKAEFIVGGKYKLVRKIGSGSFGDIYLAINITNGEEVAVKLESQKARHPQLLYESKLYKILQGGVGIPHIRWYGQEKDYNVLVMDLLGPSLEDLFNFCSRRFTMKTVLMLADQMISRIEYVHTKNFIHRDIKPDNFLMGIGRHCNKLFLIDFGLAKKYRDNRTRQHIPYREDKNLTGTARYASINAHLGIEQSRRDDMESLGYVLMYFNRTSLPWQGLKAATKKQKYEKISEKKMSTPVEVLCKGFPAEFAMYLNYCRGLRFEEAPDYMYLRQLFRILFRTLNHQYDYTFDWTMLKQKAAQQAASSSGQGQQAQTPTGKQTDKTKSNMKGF
# UniProt P48730: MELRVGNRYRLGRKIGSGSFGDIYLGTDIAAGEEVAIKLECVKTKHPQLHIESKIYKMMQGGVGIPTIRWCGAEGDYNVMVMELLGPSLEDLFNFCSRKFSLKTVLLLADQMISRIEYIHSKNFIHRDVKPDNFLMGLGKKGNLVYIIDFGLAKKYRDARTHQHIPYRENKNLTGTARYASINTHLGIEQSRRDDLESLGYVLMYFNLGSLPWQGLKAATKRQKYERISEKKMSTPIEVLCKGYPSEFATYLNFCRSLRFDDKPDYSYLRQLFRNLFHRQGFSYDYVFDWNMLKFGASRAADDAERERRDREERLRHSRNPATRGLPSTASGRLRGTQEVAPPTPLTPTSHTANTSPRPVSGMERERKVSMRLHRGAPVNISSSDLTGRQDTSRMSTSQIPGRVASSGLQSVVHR
# UniProt Q08345: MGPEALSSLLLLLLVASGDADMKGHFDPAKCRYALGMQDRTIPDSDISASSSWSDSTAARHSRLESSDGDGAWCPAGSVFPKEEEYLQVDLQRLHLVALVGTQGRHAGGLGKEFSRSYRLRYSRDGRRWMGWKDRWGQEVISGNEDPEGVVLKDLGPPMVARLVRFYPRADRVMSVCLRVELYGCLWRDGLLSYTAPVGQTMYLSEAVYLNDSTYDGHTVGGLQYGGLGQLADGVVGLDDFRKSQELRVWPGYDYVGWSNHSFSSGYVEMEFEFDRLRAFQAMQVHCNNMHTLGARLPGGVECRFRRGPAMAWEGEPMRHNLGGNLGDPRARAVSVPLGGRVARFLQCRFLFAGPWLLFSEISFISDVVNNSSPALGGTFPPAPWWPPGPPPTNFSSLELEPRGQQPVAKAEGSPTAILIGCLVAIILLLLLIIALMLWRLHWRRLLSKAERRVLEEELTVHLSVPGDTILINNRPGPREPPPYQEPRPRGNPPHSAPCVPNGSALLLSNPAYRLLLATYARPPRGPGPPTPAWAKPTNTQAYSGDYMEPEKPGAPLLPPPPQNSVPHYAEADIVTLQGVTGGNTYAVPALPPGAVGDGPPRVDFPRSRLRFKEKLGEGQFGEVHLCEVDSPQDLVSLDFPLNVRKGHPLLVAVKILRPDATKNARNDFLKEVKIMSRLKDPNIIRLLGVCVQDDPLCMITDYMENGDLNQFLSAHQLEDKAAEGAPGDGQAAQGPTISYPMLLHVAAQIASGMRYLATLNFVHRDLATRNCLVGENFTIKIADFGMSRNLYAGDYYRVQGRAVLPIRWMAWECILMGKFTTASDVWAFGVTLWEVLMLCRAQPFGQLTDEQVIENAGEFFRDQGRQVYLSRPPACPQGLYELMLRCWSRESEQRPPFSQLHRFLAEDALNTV
# UniProt Q9Y463, whole entry, looked up: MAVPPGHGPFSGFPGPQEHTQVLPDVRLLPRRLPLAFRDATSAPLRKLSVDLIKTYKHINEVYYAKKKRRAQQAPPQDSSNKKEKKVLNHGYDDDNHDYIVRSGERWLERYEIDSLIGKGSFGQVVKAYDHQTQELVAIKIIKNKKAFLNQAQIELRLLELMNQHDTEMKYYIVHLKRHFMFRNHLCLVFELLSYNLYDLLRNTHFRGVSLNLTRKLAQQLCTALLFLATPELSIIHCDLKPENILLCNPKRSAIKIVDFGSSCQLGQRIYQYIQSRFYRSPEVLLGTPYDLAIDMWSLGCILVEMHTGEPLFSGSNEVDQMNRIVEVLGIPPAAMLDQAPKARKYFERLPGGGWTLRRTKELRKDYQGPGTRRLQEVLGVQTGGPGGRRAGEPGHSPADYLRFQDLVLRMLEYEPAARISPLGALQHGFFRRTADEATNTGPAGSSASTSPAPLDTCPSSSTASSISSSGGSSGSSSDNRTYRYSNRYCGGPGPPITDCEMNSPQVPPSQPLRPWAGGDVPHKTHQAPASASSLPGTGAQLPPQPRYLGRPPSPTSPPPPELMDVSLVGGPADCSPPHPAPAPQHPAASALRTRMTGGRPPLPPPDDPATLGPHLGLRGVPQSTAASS
# UniProt Q92630: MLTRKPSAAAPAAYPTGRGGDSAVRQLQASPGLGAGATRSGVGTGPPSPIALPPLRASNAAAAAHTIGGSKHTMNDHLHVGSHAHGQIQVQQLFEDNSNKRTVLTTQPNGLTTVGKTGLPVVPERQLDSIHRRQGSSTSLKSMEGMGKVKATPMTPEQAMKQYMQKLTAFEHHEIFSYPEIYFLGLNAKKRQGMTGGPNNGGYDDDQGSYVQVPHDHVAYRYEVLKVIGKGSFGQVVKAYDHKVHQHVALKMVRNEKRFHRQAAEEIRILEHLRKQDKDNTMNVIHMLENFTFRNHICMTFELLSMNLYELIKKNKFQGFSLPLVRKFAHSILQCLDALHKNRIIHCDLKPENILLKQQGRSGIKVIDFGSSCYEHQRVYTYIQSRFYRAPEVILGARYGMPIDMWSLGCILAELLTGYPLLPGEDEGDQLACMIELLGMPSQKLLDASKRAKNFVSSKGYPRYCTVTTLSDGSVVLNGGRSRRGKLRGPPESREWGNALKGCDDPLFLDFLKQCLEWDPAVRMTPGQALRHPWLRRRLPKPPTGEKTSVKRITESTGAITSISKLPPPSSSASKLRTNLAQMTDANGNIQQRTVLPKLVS
# UniProt O75460: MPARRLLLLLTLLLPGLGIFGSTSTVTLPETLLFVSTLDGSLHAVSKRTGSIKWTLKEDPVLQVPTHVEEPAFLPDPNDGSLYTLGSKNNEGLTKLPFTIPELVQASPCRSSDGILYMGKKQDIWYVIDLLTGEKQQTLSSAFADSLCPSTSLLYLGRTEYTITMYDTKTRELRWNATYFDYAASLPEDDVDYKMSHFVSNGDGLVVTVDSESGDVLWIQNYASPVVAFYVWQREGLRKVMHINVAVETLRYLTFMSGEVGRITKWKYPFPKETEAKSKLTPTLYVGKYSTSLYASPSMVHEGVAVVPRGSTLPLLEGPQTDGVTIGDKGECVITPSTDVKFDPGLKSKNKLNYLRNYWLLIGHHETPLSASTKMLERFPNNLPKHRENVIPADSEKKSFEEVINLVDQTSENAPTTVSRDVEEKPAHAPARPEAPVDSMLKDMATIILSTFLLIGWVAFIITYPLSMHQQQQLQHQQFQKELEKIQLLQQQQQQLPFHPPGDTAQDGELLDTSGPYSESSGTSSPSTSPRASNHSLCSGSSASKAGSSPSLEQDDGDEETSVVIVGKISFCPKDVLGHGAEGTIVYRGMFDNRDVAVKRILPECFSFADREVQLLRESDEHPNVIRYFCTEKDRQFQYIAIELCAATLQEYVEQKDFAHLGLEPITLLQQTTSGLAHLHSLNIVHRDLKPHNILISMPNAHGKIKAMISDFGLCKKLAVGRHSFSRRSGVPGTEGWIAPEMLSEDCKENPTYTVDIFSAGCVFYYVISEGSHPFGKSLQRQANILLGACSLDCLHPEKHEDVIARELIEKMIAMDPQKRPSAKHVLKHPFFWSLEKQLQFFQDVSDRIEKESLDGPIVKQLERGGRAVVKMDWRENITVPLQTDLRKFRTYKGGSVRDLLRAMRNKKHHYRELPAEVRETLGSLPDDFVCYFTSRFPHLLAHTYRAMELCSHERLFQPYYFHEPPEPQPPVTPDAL
# UniProt P11362, whole entry, looked up: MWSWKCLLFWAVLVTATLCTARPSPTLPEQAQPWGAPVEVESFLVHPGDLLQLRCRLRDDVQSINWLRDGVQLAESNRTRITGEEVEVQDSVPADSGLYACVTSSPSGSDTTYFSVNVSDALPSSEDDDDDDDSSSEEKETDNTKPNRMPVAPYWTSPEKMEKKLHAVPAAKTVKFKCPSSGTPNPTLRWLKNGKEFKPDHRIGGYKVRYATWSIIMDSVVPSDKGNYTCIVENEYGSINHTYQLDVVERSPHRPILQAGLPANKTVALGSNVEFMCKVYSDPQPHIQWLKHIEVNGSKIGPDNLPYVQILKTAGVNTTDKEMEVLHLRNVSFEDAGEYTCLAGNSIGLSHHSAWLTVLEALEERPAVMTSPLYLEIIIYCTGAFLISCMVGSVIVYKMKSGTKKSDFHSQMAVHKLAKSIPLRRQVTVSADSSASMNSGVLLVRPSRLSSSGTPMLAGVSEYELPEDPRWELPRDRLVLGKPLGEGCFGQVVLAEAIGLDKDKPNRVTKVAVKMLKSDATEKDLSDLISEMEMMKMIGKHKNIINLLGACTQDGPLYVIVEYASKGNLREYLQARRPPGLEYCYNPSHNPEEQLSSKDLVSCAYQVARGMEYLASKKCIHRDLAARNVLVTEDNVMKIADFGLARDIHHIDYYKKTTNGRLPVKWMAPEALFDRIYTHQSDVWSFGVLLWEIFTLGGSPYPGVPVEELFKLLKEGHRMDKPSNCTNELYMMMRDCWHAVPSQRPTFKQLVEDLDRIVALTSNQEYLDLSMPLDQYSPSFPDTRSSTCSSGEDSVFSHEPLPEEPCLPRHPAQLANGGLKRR
# UniProt P21802, whole entry, looked up: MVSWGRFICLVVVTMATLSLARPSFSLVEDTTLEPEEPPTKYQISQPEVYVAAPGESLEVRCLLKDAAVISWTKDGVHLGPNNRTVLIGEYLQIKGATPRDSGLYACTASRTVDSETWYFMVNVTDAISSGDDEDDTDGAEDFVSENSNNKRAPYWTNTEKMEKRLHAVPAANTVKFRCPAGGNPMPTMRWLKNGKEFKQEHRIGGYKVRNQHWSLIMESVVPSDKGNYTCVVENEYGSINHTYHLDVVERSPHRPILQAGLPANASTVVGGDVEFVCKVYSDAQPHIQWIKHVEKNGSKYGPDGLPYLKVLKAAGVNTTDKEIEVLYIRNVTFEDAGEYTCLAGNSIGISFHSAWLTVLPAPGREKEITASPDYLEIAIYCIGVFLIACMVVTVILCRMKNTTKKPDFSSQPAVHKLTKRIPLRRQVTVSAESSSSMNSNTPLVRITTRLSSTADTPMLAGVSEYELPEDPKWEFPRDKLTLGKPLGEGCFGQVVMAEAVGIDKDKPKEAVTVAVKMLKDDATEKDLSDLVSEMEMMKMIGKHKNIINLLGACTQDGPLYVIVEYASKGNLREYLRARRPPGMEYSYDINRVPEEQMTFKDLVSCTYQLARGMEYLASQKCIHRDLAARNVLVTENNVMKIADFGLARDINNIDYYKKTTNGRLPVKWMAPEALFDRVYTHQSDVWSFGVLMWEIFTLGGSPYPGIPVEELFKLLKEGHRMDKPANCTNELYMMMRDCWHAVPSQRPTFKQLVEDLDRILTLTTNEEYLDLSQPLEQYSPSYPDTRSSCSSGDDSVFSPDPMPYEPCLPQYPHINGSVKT
# UniProt P22607, whole entry, looked up: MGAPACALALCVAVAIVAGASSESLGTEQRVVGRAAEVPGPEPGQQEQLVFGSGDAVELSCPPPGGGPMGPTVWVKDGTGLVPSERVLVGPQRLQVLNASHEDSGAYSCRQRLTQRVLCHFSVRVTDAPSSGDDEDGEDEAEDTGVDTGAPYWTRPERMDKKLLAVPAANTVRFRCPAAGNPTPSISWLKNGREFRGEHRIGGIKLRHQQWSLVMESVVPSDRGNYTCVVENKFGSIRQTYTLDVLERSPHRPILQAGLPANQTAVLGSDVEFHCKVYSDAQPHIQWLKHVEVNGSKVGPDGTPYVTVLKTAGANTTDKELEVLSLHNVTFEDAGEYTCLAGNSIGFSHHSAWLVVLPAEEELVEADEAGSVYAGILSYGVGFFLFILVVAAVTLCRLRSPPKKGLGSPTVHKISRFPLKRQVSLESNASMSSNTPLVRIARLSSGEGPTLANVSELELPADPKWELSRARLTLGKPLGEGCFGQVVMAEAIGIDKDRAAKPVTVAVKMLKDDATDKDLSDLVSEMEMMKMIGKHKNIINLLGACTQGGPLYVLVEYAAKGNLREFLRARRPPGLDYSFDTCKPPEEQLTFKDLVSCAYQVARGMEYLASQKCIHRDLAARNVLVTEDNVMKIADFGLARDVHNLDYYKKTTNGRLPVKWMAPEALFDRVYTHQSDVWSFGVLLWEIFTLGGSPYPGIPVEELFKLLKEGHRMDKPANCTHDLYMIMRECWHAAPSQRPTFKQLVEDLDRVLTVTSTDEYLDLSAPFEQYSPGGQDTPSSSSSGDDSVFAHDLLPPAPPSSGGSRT
# Structures can show the parent of a compound that is named as a salt. Some of the results follow. Hit calls seldom repeat between salt and free forms of one compound.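 In K562 cells expressing nanoluciferase-fused kinases, luminescence was recorded at 4 h intervals between 2 and 18 h, normalized as percent of control with DMSO at 100% and a positive control at 0%. A significant (2 sigma) signal drop marks a time point as decreased. The authors' rule for a hit is not shown and takes in more than the number of time points.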
# Legend:
# Assay in all cases: number of time points (of 5) at which kinase-Nluc abundance scored as decreased, DMSO-normalised (count); higher = more persistent destabilization
# Conditions in all cases: K562; 2-18 h
# [1] = biological target: CSNK1A1 (UniProt P48729)
# [2] = biological target: CSNK1D (UniProt P48730)
# [3] = biological target: DDR1 (UniProt Q08345)
# [4] = biological target: DYRK1B (UniProt Q9Y463)
# [5] = biological target: DYRK2 (UniProt Q92630)
# [6] = biological target: EGFR (UniProt P00533)
# [7] = biological target: EGFR_G719S (UniProt P00533)
# [8] = biological target: EGFR_G719S_T790M (UniProt P00533)
# [9] = biological target: EGFR_L718V (UniProt P00533)
# [10] = biological target: EGFR_L858R (UniProt P00533)
# [11] = biological target: EGFR_L861Q (UniProt P00533)
# [12] = biological target: EGFR_T790M (UniProt P00533)
# [13] = biological target: EPHA2 (UniProt P29317)
# [14] = biological target: ERBB3 (UniProt P21860)
# [15] = biological target: ERBB4_R711C (clone: ERBB4_mut) (UniProt Q15303)
# [16] = biological target: ERN1 (UniProt O75460)
# [17] = biological target: FGFR1 (UniProt P11362)
# [18] = biological target: FGFR2 (UniProt P21802)
# [19] = biological target: FGFR3 (UniProt P22607)
# [20] = biological target: FGR (UniProt P09769)
Structure (SMILES),number of time points [1],number of time points [2],number of time points [3],number of time points [4],number of time points [5],number of time points [6],number of time points [7],number of time points [8],number of time points [9],number of time points [10],number of time points [11],number of time points [12],number of time points [13],number of time points [14],number of time points [15],number of time points [16],number of time points [17],number of time points [18],number of time points [19],number of time points [20]
O=c1cc(-c2cccc3c2Sc2ccccc2S3)oc(N2CCOCC2)c1 (10 µM),0,0,0,0,0,0,0,0,0,0,0,0,0,0,0,0,0,0,0,0
CC(=O)c1c(C)c2cnc(Nc3ccc(N4CCN(C(=O)CNc5cccc6c5C(=O)N(C5CCC(=O)NC5=O)C6=O)CC4)cn3)nc2n(C2CCCC2)c1=O (stereo not given) (10 µM),0,0,0,0,0,0,0,0,0,0,0,0,0,0,0,0,0,0,0,0
CCc1cncnc1N1CCN(Cc2nc3ccc(C(F)(F)F)cc3[nH]2)CC1 (10 µM),0,0,0,0,0,0,0,0,0,0,0,0,0,0,0,0,0,0,0,0
CC(C)c1cccc(C(C)C)c1N1C(=O)c2ccc(N)cc2C1=O (2.5 µM),0,0,0,0,0,0,0,0,0,0,0,0,0,0,0,0,0,0,0,0
Cn1cc(C2=C(c3cccc(N)c3)C(=O)NC2=O)c2ccccc21 (10 µM),0,0,0,0,0,0,0,0,0,0,0,0,0,0,0,0,0,0,0,0
CNC(=O)c1cc2c(Oc3ccc(NC(=S)NC(=O)Cc4ccccc4)cc3F)ccnc2cc1OC [TAS-115 mesylate] (10 µM),0,0,0,2,4,2,3,0,0,1,2,0,0,3,4,0,0,2,0,0
CC(C)C[C@@H](C(=O)Nc1ccn(C[C@@H](O)CO)n1)N1CC(Oc2ccccc2Cl)=CC1=O [Dorzagliatin] (10 µM),0,0,0,0,0,0,0,0,0,0,0,0,0,0,0,0,0,0,0,0
CCCNC(=O)Nc1ccc(Oc2ncnc3cc(OC)c(OC)cc23)cc1Cl (2.5 µM),0,0,0,0,0,0,0,0,0,0,0,0,0,0,0,0,0,0,0,0
COc1cc2ncnc(Nc3ccccc3)c2cc1OC (10 µM),0,0,0,0,0,0,0,0,0,0,0,0,0,0,0,0,0,0,0,0
COc1cc(/C=C/C(=O)N2CCC=CC2=O)cc(OC)c1OC [Piperlongumine] (2.5 µM),0,0,3,0,0,0,0,1,0,0,0,0,2,2,0,0,0,0,0,0
COc1cc(-c2cn[nH]c2)ccc1C(=O)Nc1ccc2c(c1)CCNCC2 (10 µM),0,0,1,0,0,0,0,0,0,0,0,0,0,0,0,0,0,0,0,0
CNC(=O)c1ccccc1Oc1nc(Nc2cc(OC)c(OC)c(OC)c2)ncc1Br (2.5 µM),0,0,0,0,0,0,0,0,0,0,0,0,0,0,0,0,0,0,0,0
CNc1cc(Nc2cccn(-c3ccccn3)c2=O)nn2c(C(=O)N[C@@H]3C[C@@H]3F)cnc12 (2.5 µM),0,0,0,0,0,0,0,0,0,0,0,0,0,0,0,0,0,0,0,0
C[C@@H]1O[C@@H](O[C@@H]2[C@@H](O)[C@H](OCCc3ccc(O)c(O)c3)O[C@H](CO)[C@H]2OC(=O)/C=C/c2ccc(O)c(O)c2)[C@H](O)[C@H](O)[C@H]1O [Verbascoside] (10 µM),0,0,0,0,0,0,0,0,0,0,0,0,0,0,0,0,0,0,0,0
COc1ccc(S(=O)(=O)NCc2ccc(C(=O)NCCc3ccc(Cl)cn3)cc2)cc1 (10 µM),0,0,0,0,0,0,0,0,0,0,0,0,0,0,0,0,0,0,0,0
Cc1cc(Nc2ncnc3ccc(-c4ccc(CNCCS(C)(=O)=O)o4)cc23)ccc1Oc1ccn2ncnc2c1 [ARRY-380 (analog )] (2.5 µM),0,0,0,0,0,0,0,0,0,0,0,0,0,0,0,0,0,0,0,0
N#CC(c1ccnc(OCc2ccc(CN3CCOCC3)cc2)n1)c1nc2ccccc2s1 (stereo not given) [Bentamapimod] (2.5 µM),0,0,0,0,0,0,0,0,0,0,0,0,0,0,0,0,0,0,0,0

Structure (SMILES),number of time points [1],number of time points [2],number of time points [3],number of time points [4],number of time points [5],number of time points [6],number of time points [7],number of time points [8],number of time points [9],number of time points [10],number of time points [11],number of time points [12],number of time points [13],number of time points [14],number of time points [15],number of time points [16],number of time points [17],number of time points [18],number of time points [19],number of time points [20]
CN(C)c1nc2c(Br)c(Br)c(Br)c(Br)c2[nH]1 (10 µM),0,0,0,0,0,0,0,0,0,0,0,0,0,0,0,0,0,0,0,0
Cn1ncc2cc(-c3cnc(N)c(Cl)c3N3CCC4(CCNC4=O)CC3)ccc21 (10 µM),0,0,0,0,0,0,0,0,0,0,0,0,0,0,0,0,0,0,0,0
Cc1c(-c2ccc(C(N)=O)c3[nH]c4cc(C(C)(C)O)ccc4c23)cccc1-n1cnc2ccccc2c1=O (2.5 µM),0,0,0,0,0,0,0,0,0,0,0,0,0,0,0,0,0,0,0,0
Cc1nn(C)c2c1C(c1ccc(C(F)(F)F)cc1)C(C#N)=C(N)O2 (stereo not given) (10 µM),0,0,0,0,0,0,0,0,0,0,0,0,0,0,0,0,0,0,0,0
O=C1NC(=O)/C(=C/c2ccc3nccc(-c4ccncc4)c3c2)S1 (10 µM),1,0,0,0,0,0,2,0,0,0,0,0,0,0,0,0,1,3,0,0
C[C@@H]1COCCN1c1nc(-c2cnc(N)cc2C(F)F)nc(N2[C@H](C)COC[C@@H]2C)n1 (2.5 µM),0,0,3,0,4,0,0,1,0,0,0,0,0,1,1,0,0,0,0,0
O[C@@H]1CO[C@H]2[C@@H]1OC[C@H]2Oc1nc2nc(-c3ccc(-c4ccccc4)cc3)c(Cl)cc2[nH]1 (10 µM),0,0,0,0,2,0,0,1,0,0,0,0,0,1,1,0,0,0,0,0
c1cc(NC2CCNCC2)nc(-c2cnc3ccccn23)c1 [IRAK inhibitor 1] (10 µM),0,0,0,0,0,0,0,0,0,0,0,0,0,0,0,0,0,0,0,0
Cn1cc(-c2cnc3cnn(S(=O)(=O)c4cnc5ccc(-c6cnn(C)c6)cn45)c3c2)cn1 [Glumetinib] (10 µM),0,0,0,0,0,0,0,0,0,0,0,0,0,0,0,0,0,0,0,0
O=[N+]([O-])c1ccc2c(c1)S(=O)(=O)C=C2 [Stattic] (2.5 µM),0,0,0,0,0,0,0,0,0,0,1,0,0,0,0,0,0,0,0,0
CC(=O)N1CCC(c2cc(-c3ccc(NC(=O)c4cccn(-c5ccc(F)cc5)c4=O)cc3F)c3c(N)ncnn23)CC1 (0.5 µM),0,0,0,0,2,0,0,0,0,0,0,0,0,0,0,0,0,0,0,0
Nc1ncnc2c1c(COc1cccc(Cl)c1)nn2C1CCOCC1 (10 µM),0,0,0,0,0,0,0,0,0,0,0,0,0,0,0,0,0,0,0,0
COc1ccc2cc(-c3nc(-c4ccc([S+](C)[O-])cc4)[nH]c3-c3ccncc3)ccc2c1 (stereo not given) [Tie2 kinase inhibitor 1] (2.5 µM),0,0,0,0,0,0,0,0,0,0,0,0,0,0,0,0,0,0,0,0
c1ccc(-c2nc3c(c(-n4ccc5cnccc54)n2)CCC3)nc1 (10 µM),0,0,0,0,0,0,0,0,0,0,0,0,0,0,0,0,0,0,0,0
O=C(Nc1nc2ccc(NC(=O)C34CC5CC(CC(C5)C3)C4)cc2s1)c1ccccc1 (10 µM),0,0,0,0,0,0,0,0,0,0,0,0,0,0,0,0,0,0,0,0
COc1ccc2cc3[n+](cc2c1OC)CCc1cc(O)c(O)cc1-3 [Demethyleneberberine] (10 µM),0,0,0,0,0,0,0,0,0,0,0,0,0,0,0,0,0,0,0,0

# An excerpt of the results above:
Structure (SMILES),number of time points [1],number of time points [2],number of time points [3],number of time points [4],number of time points [5],number of time points [6],number of time points [7],number of time points [8],number of time points [9],number of time points [10],number of time points [11],number of time points [12],number of time points [13],number of time points [14],number of time points [15],number of time points [16],number of time points [17],number of time points [18],number of time points [19],number of time points [20]
Cc1cc(Nc2ncnc3ccc(-c4ccc(CNCCS(C)(=O)=O)o4)cc23)ccc1Oc1ccn2ncnc2c1 [ARRY-380 (analog )] (2.5 µM),0,0,0,0,0,0,0,0,0,0,0,0,0,0,0,0,0,0,0,0
N#CC(c1ccnc(OCc2ccc(CN3CCOCC3)cc2)n1)c1nc2ccccc2s1 (stereo not given) [Bentamapimod] (2.5 µM),0,0,0,0,0,0,0,0,0,0,0,0,0,0,0,0,0,0,0,0
